Laboratory results reported in paper PMC11963761, “Structural basis for control of integrative and conjugative element excision and transfer by the oligomeric winged helix–turn–helix protein RdfS”.

How the values were obtained:
Assay in all cases: SPR
[1] = tested on: 6HRdfS1271 (Mesorhizobium ciceri WSM1271 (ICEMcSym1271)); conditions: SPR: ReDCaT on Biacore T200, 1 uM protein, temperature not given, recombinant protein, protein details: N-terminal 6xHis, label: 5' biotin on S36
[2] = target: T1, RdfS (Mesorhizobium japonicum R7A (ICEMlSymR7A)) (UniProt Q7AL96); conditions: SPR: ReDCaT on Biacore T200, 1 uM protein, temperature not given, recombinant protein, residues 1-89, protein details: N-terminal 6xHis removed after purification, label: 5' biotin on S36
T1 sequence (looked up): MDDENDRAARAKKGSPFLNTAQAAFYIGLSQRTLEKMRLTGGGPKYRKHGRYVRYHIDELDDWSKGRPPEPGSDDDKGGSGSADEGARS

[3] = target: T2, 6H-RdfS (Mesorhizobium japonicum R7A (ICEMlSymR7A)) (UniProt Q7AL96); conditions: SPR: ReDCaT on Biacore T200, 1 uM protein, temperature not given, recombinant protein, residues 1-89, protein details: N-terminal 6xHis, label: 5' biotin on …
T2 sequence (looked up): T1 sequence (looked up)

[4] = 1 uM, nonspecific increase by tag

Sequence	binding result ([1]; only very weak for any)	binding result [3, 4]	further results
ACGATCTCCTCGCTACGAATTGGCAACTAGGATGTGGCTT / AAGCCACATCCTAGTTGCCAATTCGTAGCGAGGAGATCGTCCTACCCTACGTCCTCCTGC / GCAGGAGGACGTAGGGTAGG [PrdfM_5]	binds more weakly	–	–
ACTAGGATGTGGCTTTTGCGCTTCGATACCAACTCGCCTG / CAGGCGAGTTGGTATCGAAGCGCAAAAGCCACATCCTAGTCCTACCCTACGTCCTCCTGC / GCAGGAGGACGTAGGGTAGG [PrdfM_6]	binds more weakly	–	–
ACTAGTCAGGCCGGTTCCGCTTGACGAGGGTTTTCTTATT / AATAAGAAAACCCTCGTCAAGCGGAACCGGCCTGACTAGTCCTACCCTACGTCCTCCTGC / GCAGGAGGACGTAGGGTAGG [PrdfM_3]	binds more weakly	–	–
ATACCAACTCGCCTGGATTGCCAGGACCGAGGCAGCGTCC / GGACGCTGCCTCGGTCCTGGCAATCCAGGCGAGTTGGTATCCTACCCTACGTCCTCCTGC / GCAGGAGGACGTAGGGTAGG [PrdfM_7]	binds more weakly	–	–
CTGCCGGAATGCACCCCGTTCACACGTTGCTGCCAATTTA / TAAATTGGCAGCAACGTGTGAACGGGGTGCATTCCGGCAGCCTACCCTACGTCCTCCTGC / GCAGGAGGACGTAGGGTAGG [PrdfM_1]	binds more weakly	–	–
GAATTTCGGCGCAGTTGGTCCAACGAGGCGGGGGGCTGGT / ACCAGCCCCCCGCCTCGTTGGACCAACTGCGCCGAAATTCCCTACCCTACGTCCTCCTGC / GCAGGAGGACGTAGGGTAGG [attP_8]	–	–	binding result ([2]; 1 uM protein): binds; binding result ([1]; 1 uM protein): binds; binding result ([3]; 1 uM protein, response as untagged): binds
GACTCTTCGCCCGTCCCCACGACGACCTCGTTCGCCGATC / GATCGGCGAACGAGGTCGTCGTGGGGACGGGCGAAGAGTCCCTACCCTACGTCCTCCTGC / GCAGGAGGACGTAGGGTAGG [PrdfS_4]	–	–	binding signal (% of attP 8 response) ([2]; 1 uM protein, 52% of theoretical Rmax): 43; binding result ([1]; 1 uM protein): binds
GAGGGTTTTCTTATTTTAGCCCAACACGATCTCCTCGCTA / TAGCGAGGAGATCGTGTTGGGCTAAAATAAGAAAACCCTCCCTACCCTACGTCCTCCTGC / GCAGGAGGACGTAGGGTAGG [PrdfM_4]	binds more weakly	–	–
GGGGGCTGGTATTTTCGGTGGTATTGGAGATGCTGATGGT / ACCATCAGCATCTCCAATACCACCGAAAATACCAGCCCCCCCTACCCTACGTCCTCCTGC / GCAGGAGGACGTAGGGTAGG [attP_9]	–	binds more weakly	binding result ([2]; 1 uM): no binding
GTTGCTGCCAATTTACGCCGAACGAACTAGTCAGGCCGGT / ACCGGCCTGACTAGTTCGTTCGGCGTAAATTGGCAGCAACCCTACCCTACGTCCTCCTGC / GCAGGAGGACGTAGGGTAGG [PrdfM_2]	binds more weakly	–	–
GTTGGTACTTCTGTTGGCACGCAGGGACGATGTTGGAGGC / GCCTCCAACATCGTCCCTGCGTGCCAACAGAAGTACCAACCCTACCCTACGTCCTCCTGC / GCAGGAGGACGTAGGGTAGG [attP_1]	–	binds more weakly	binding result ([2]; 1 uM): no binding
TGTTGGAGGCCAAACATTTGTAAACAAAGTCAAATTTGTT / AACAAATTTGACTTTGTTTACAAATGTTTGGCCTCCAACACCTACCCTACGTCCTCCTGC / GCAGGAGGACGTAGGGTAGG [attP_2]	–	binds more weakly	binding result ([2]; 1 uM, negative control): no binding
TTTCGCCGAAGCCTCTACGCTTCTGTCTCGGCAACTAGCT / AGCTAGTTGCCGAGACAGAAGCGTAGAGGCTTCGGCGAAACCTACCCTACGTCCTCCTGC / GCAGGAGGACGTAGGGTAGG [attP_5]	–	binds more weakly	binding result ([2]; 1 uM): no binding

The exact form of at least one protein or probe is not confirmed. For some assays here: No signal at the amounts used counts as a negative. At least one verdict rests on a figure or table, not on a statement of the authors. For some assays here: Where a protein sequence is shown, tags need not be part of it. For some assays here: The comparison behind a weaker result is the experiment's own reference, which may not be listed here.
